Data as given in the supplement of paper PMC10735217.
Counter-ions that a name gives are not always drawn. The list shows a part of the results. Repeats in this data set agree poorly, so a single value says little.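 Human kidney-derived cells stably carry a construct in which eight TEAD-binding elements drive luciferase, measured by luminescence in a drug-repurposing library screen. A hit is any compound whose signal exceeds the plate mean by more than five robust Z scores.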

Test system: HEK293A TEAD-LUC reporter
Assay: TEAD-luciferase reporter activity (YAP activation), robust Z score vs plate; higher = stronger YAP/TEAD activation
Conditions: 24 h

SMILES	TEAD-luciferase reporter activity (compound concentration: 200 nM)	TEAD-luciferase reporter activity (compound concentration: 2 uM)	TEAD-luciferase reporter activity (compound concentration: 10 uM)
Cc1cccc(N2CC(CO)OC2=O)c1 (centres undefined) [toloxatone]	inactive: -1.96	inactive: 1.87	inactive: -2.36
CC(C)(C#N)c1cc(Cn2cncn2)cc(C(C)(C)C#N)c1	inactive: 0.453		inactive: 0.0914
CC(C)(C#N)c1cc(Cn2cncn2)cc(C(C)(C)C#N)c1 [anastrozole]		inactive: -1.1	
CCOC(=O)c1c(C)cc2c(CO)n[nH]c(=O)c2c1C [oxagrelate]	inactive: -1.17	inactive: 0.0515	inactive: -0.157
COc1ccc2c3c1O[C@H]1C[C@@H](O)C=C[C@@]31CCN(C)C2 [galantamine]		inactive: -1.42	
COc1ccc2c3c1O[C@H]1C[C@@H](O)C=C[C@@]31CCN(C)C2 [Galanthamine]	inactive: 2.2		inactive: -1.19
C#CC(OC(=O)NC1CCCCC1)(c1ccccc1)c1ccccc1	inactive: 1.68	inactive: -0.609	inactive: 0.495
CC(C)N1CCN(c2ccc(N3CCN(c4ccc(OC[C@@H]5OC[C@@](Cn6cncn6)(c6ccc(F)cc6F)O5)cc4)CC3)cc2)C1=O	inactive: -2.36	inactive: -0.484	inactive: 0.0651
O=C(O)[C@H](O)[C@@H](O)[C@H](O[C@@H]1O[C@H](CO)[C@H](O)[C@H](O)[C@H]1O)[C@H](O)CO [Lactobionic acid]	inactive: -1.13	inactive: 1.37	inactive: -0.667
CCc1nc(N)nc(N)c1-c1ccc(Cl)c(N=[N+]=[N-])c1	inactive: 2.11	inactive: 0.197	inactive: -0.427
CC[N+]1(CC)CCC(=C(c2ccccc2)c2ccccc2)C1C (centres undefined)	inactive: -0.57	inactive: -0.494	inactive: 0.987
COCCOC(=O)C1=C(C)NC(C)=C(C(=O)OC(C)C)C1c1cccc([N+](=O)[O-])c1 (centres undefined)	inactive: -0.0766		inactive: -0.927
COCCOC(=O)C1=C(C)NC(C)=C(C(=O)OC(C)C)C1c1cccc([N+](=O)[O-])c1 (centres undefined) [Nimodipine]		inactive: -0.339	
C[C@]12CC[C@@H]3c4ccc(O)cc4CC[C@H]3[C@@H]1CC[C@@H]2OC(=O)CCC1CCCC1 [Estradiol cypionate]	inactive: -0.68		inactive: -1.38
C[C@]12CC[C@@H]3c4ccc(O)cc4CC[C@H]3[C@@H]1CC[C@@H]2OC(=O)CCC1CCCC1 [Estradiol (cypionate)]		inactive: 0.0757	
CCCc1ccc(NS(=O)(=O)Cc2ccccc2)c(=O)n1CC(=O)NCCc1cccnc1	inactive: -0.661	inactive: 0.491	inactive: -0.344
CCCc1cc(=O)[nH]c(=S)[nH]1 [Propylthiouracil]	inactive: 0.883	inactive: 1.07	inactive: 2.31
O=C(/C=C/c1cccc(F)c1)NC1CC1 [cinflumide]	inactive: -0.802	inactive: 0.38	inactive: -0.915
CCN(CC)CC/C(=N\OC(=O)Nc1ccc(OC)cc1)c1ccccc1 [Anidoxime hydrochloride]	inactive: -0.582	inactive: -0.447	inactive: -0.078
CC(=O)N[C@H](Cc1ccc2ccccc2c1)C(=O)N[C@H](Cc1ccc(Cl)cc1)C(=O)N[C@H](Cc1cccnc1)C(=O)N[C@@H](CO)C(=O)N(C)[C@@H](Cc1ccc(O)cc1)C(=O)N[C@H](CC(N)=O)C(=O)N[C@@H](CC(C)C)C(=O)N[C@@H](CCCCNC(C)C)C(=O)N1CCC[C@H]1C(=O)N[C@H](C)C(N)=O [Abarelix]	inactive: -0.834	inactive: -0.369	inactive: 0.0662
O=C(Nc1cnn2ccc(N3CCCC3c3cc(F)ccc3F)nc12)N1CC[C@H](O)C1 (some centres undefined)	inactive: 0.173	inactive: -1.15	inactive: 2.83
COCCCCCCCCCN1C[C@H](O)[C@@H](O)[C@H](O)[C@H]1CO	inactive: -0.0249	inactive: 0.927	inactive: -0.615
Nc1nc(-n2cc(C(=O)O)c(=O)c3cc(F)c(N4CC(O)C4)c(Cl)c32)c(F)cc1F [delafloxacin]	inactive: -1.49	inactive: -0.441	inactive: 1.69
CC(C)C(NC(=O)C(CO)NC(=O)C(CCCNC(=N)N)NC(=O)C(Cc1ccccc1)NC(=O)CC1CCCCC1)C(=O)NC(CCC(N)=O)C(N)=O (centres undefined)	inactive: -0.891	inactive: 1.35	inactive: 4.64
Cc1ccncc1N1CCN(c2ccnc(Cl)c2)C1=O	inactive: 0.132	inactive: -0.12	inactive: 0.602
Cc1cccc(O[C@@H]2CCNC[C@@H]2O)c1C	inactive: -1.64	inactive: -0.587	inactive: -0.796
COc1ccc(-c2cc3nccn3c(Nc3ncccc3C(N)=O)n2)cc1OC [BAY 61-3606 dihydrochloride]	inactive: -0.185	inactive: 4.09	inactive: -2.64

Record cards, from the list above. Order of values: TEAD-luciferase reporter activity (compound concentration: 200 nM) | TEAD-luciferase reporter activity (compound concentration: 2 uM) | TEAD-luciferase reporter activity (compound concentration: 10 uM)
C#CC(OC(=O)NC1CCCCC1)(c1ccccc1)c1ccccc1 as listed: inactive: 1.68 | inactive: -0.609 | inactive: 0.495
Cc1cccc(N2CC(CO)OC2=O)c1 (centres undefined) [toloxatone] as listed: inactive: -1.96 | inactive: 1.87 | inactive: -2.36
